Assay results reported in the supplement of paper PMC12889115.
This is one part of the list. Values are raw readings; no control value is given beside them.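 First-pass screen: polymyxin B was added at a level that permeabilizes the Salmonella outer membrane while sparing the inner membrane. DMSO wells, with and without polymyxin B, defined maximum growth. Because plates differed from one another, each plate's data were ranked separately and the compounds with the lowest OD600 were carried forward as hits.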

Tested on: Salmonella enterica serovar Typhimurium SL1344
Test: bacterial growth OD600 after 18 h with compound and polymyxin B; higher = more bacterial growth (less inhibition)
Details: 50 µM, Mueller-Hinton broth

Row | Structure (SMILES) | bacterial growth OD600 (polymyxin B 1 µg/mL) | bacterial growth OD600 (polymyxin B 0.75 µg/mL)
1 | Cc1ccccc1N1CCN(C2CCCN(C(=O)c3cccc(F)c3)C2)CC1 (stereo not given) | 0.728 | –
2 | Cc1ncc2c(c1CNS(=O)(=O)c1ccsc1)CCN(C(=O)Cc1ccccc1Cl)C2 | – | 0.717
3 | Cc1cccc(CN2CCC(n3nccc3NC(=O)c3ccc4c(c3)OCO4)CC2)n1 | 0.91 | –
4 | CO[C@H]1[C@H](NC(=O)c2ccccn2)c2ccccc2C12CCN(C(=O)[C@@H](O)c1ccccc1)CC2 | – | 0.816
5 | Cc1ccccc1CCN1CCCC(CN(C)C(=O)c2csc(C(C)C)n2)C1 (stereo not given) | 0.623 | –
6 | O=C(CC(c1cccc(O)c1)c1ccccc1Cl)N1CCOCC1 (stereo not given) | 0.782 | –
7 | O=C(NCC1CCCN(C(=O)c2ccc(F)c(F)c2)C1)c1cccc2ccccc12 (stereo not given) | 0.909 | –
8 | CS(=O)(=O)N1CCC(Oc2cccc(C(=O)NC3Cc4ccccc4C3)c2)CC1 | 0.854 | –
9 | O=C(CN1Cc2ccccc2OC(c2ccccc2F)C1)N1CCCCC1c1ccccn1 (stereo not given) | – | 0.043
10 | Cc1cc(C)cc(CN2CCC(N3CCCC(C(=O)NC4CC4)C3)CC2)c1 (stereo not given) | – | 0.841
11 | COc1cccc(CN2CCCC(c3nc(-c4ccncc4)ncc3-c3ccccc3C)C2)c1OC (stereo not given) | – | 0.994
12 | COc1cc(OC)cc(C(=O)NCC2CCCN(Cc3cnn(C)c3C)C2)c1 (stereo not given) | 0.943 | –
13 | CCC(C)CN1CCCC(c2[nH]ncc2CC(C)C)C1 (stereo not given) | – | 0.809
14 | CCOC(=O)C1(Cc2cccc(Cl)c2)CCCN(C(=O)CCSC)C1 (stereo not given) | 0.701 | –
15 | CCOC(=O)N1CCN(C(=O)c2ccc(N3CCC(NCCN4CCOCC4)CC3)cc2)CC1 | – | 0.834
16 | COc1ccc(C(=O)NC2CC2)c(OC2CCN(Cc3nc(C)c[nH]3)CC2)c1 | – | 0.846
17 | COc1ccc(CNC(=O)CCC2CCCN(Cc3cccc(O)c3)C2)c(OC)c1 (stereo not given) | – | 0.792
18 | Cc1ccc2c(c1)CN(CCC(=O)NCC(C)(C)CO)CC(C)O2 (stereo not given) | – | 0.779
19 | CCn1cc(CN2CCCC(CNC(=O)COc3ccccc3OC)C2)c(C)n1 (stereo not given) | 0.976 | –
20 | Cc1ccc(CN2CC[C@@H](N3CCC(O)CC3)[C@H](O)C2)cc1C | 0.937 | –
21 | COc1cc(CN2CCCC(CO)(Cc3ccc(F)cc3)C2)ccc1O (stereo not given) | – | 0.871
22 | COCCCN1C(=O)CC(CC(=O)N(C)Cc2ccccn2)(c2ccccc2Cl)C1=O (stereo not given) | – | 0.82
23 | CCCc1cc(C(=O)NCC2Cc3cc(-c4ccnc(SC)n4)cc(Cl)c3O2)no1 (stereo not given) | – | 0.507
24 | CCC(=O)C1CCCN(C(=O)C2CCN(c3nc(C)c4ccc(S(C)(=O)=O)cc4n3)CC2)C1 (stereo not given) | – | 0.914
25 | CCOc1ccc(C2c3[nH]c4ccccc4c3CCN2C(=O)C2CCC2)cc1 (stereo not given) | – | 0.323
26 | COc1ccc(C(=O)N2CCC(C3CCN(Cc4cccnc4)CC3)C2)o1 (stereo not given) | – | 0.811
27 | O=C(Nc1ccnn1C1CCN(Cc2nc3ccccc3s2)CC1)C1CC1 | 0.972 | –
28 | CCOC(=O)N1CCN(Cc2ccc3c(c2)CN(C(=O)CCc2c[nH]c4ccccc24)CCO3)CC1 | – | 0.797
29 | Cc1ccc(OCc2cc(C(=O)N3CCC(C(=O)c4ccccc4)CC3)no2)cn1 | 0.918 | –
30 | Cc1cc(CNCC2(O)CCCN(Cc3ccccc3F)C2=O)[nH]n1 (stereo not given) | 1.01 | –

2 entries picked at random from those above, as already listed:
Row | Structure (SMILES) | bacterial growth OD600 (polymyxin B 1 µg/mL) | bacterial growth OD600 (polymyxin B 0.75 µg/mL)
14 | CCOC(=O)C1(Cc2cccc(Cl)c2)CCCN(C(=O)CCSC)C1 (stereo not given) | 0.701 | –
7 | O=C(NCC1CCCN(C(=O)c2ccc(F)c(F)c2)C1)c1cccc2ccccc12 (stereo not given) | 0.909 | –
